Measurements taken from doi:10.1101/2024.05.20.594848.
Results are given in words; binding and its absence hold for the method and conditions named. For part of these data: Binding seen in cells or lysates may run through a third protein. Some results given as binding are weak or reduced against the parent protein; the word gives no strength. For part of these data: Where a sequence is shown, tags or fusion partners need not be part of it.

The chains behind the UniProt entries cited, without tags or fusion partners. Residues count along the entry.
UniProt Q91ZX7, residues 20-4545: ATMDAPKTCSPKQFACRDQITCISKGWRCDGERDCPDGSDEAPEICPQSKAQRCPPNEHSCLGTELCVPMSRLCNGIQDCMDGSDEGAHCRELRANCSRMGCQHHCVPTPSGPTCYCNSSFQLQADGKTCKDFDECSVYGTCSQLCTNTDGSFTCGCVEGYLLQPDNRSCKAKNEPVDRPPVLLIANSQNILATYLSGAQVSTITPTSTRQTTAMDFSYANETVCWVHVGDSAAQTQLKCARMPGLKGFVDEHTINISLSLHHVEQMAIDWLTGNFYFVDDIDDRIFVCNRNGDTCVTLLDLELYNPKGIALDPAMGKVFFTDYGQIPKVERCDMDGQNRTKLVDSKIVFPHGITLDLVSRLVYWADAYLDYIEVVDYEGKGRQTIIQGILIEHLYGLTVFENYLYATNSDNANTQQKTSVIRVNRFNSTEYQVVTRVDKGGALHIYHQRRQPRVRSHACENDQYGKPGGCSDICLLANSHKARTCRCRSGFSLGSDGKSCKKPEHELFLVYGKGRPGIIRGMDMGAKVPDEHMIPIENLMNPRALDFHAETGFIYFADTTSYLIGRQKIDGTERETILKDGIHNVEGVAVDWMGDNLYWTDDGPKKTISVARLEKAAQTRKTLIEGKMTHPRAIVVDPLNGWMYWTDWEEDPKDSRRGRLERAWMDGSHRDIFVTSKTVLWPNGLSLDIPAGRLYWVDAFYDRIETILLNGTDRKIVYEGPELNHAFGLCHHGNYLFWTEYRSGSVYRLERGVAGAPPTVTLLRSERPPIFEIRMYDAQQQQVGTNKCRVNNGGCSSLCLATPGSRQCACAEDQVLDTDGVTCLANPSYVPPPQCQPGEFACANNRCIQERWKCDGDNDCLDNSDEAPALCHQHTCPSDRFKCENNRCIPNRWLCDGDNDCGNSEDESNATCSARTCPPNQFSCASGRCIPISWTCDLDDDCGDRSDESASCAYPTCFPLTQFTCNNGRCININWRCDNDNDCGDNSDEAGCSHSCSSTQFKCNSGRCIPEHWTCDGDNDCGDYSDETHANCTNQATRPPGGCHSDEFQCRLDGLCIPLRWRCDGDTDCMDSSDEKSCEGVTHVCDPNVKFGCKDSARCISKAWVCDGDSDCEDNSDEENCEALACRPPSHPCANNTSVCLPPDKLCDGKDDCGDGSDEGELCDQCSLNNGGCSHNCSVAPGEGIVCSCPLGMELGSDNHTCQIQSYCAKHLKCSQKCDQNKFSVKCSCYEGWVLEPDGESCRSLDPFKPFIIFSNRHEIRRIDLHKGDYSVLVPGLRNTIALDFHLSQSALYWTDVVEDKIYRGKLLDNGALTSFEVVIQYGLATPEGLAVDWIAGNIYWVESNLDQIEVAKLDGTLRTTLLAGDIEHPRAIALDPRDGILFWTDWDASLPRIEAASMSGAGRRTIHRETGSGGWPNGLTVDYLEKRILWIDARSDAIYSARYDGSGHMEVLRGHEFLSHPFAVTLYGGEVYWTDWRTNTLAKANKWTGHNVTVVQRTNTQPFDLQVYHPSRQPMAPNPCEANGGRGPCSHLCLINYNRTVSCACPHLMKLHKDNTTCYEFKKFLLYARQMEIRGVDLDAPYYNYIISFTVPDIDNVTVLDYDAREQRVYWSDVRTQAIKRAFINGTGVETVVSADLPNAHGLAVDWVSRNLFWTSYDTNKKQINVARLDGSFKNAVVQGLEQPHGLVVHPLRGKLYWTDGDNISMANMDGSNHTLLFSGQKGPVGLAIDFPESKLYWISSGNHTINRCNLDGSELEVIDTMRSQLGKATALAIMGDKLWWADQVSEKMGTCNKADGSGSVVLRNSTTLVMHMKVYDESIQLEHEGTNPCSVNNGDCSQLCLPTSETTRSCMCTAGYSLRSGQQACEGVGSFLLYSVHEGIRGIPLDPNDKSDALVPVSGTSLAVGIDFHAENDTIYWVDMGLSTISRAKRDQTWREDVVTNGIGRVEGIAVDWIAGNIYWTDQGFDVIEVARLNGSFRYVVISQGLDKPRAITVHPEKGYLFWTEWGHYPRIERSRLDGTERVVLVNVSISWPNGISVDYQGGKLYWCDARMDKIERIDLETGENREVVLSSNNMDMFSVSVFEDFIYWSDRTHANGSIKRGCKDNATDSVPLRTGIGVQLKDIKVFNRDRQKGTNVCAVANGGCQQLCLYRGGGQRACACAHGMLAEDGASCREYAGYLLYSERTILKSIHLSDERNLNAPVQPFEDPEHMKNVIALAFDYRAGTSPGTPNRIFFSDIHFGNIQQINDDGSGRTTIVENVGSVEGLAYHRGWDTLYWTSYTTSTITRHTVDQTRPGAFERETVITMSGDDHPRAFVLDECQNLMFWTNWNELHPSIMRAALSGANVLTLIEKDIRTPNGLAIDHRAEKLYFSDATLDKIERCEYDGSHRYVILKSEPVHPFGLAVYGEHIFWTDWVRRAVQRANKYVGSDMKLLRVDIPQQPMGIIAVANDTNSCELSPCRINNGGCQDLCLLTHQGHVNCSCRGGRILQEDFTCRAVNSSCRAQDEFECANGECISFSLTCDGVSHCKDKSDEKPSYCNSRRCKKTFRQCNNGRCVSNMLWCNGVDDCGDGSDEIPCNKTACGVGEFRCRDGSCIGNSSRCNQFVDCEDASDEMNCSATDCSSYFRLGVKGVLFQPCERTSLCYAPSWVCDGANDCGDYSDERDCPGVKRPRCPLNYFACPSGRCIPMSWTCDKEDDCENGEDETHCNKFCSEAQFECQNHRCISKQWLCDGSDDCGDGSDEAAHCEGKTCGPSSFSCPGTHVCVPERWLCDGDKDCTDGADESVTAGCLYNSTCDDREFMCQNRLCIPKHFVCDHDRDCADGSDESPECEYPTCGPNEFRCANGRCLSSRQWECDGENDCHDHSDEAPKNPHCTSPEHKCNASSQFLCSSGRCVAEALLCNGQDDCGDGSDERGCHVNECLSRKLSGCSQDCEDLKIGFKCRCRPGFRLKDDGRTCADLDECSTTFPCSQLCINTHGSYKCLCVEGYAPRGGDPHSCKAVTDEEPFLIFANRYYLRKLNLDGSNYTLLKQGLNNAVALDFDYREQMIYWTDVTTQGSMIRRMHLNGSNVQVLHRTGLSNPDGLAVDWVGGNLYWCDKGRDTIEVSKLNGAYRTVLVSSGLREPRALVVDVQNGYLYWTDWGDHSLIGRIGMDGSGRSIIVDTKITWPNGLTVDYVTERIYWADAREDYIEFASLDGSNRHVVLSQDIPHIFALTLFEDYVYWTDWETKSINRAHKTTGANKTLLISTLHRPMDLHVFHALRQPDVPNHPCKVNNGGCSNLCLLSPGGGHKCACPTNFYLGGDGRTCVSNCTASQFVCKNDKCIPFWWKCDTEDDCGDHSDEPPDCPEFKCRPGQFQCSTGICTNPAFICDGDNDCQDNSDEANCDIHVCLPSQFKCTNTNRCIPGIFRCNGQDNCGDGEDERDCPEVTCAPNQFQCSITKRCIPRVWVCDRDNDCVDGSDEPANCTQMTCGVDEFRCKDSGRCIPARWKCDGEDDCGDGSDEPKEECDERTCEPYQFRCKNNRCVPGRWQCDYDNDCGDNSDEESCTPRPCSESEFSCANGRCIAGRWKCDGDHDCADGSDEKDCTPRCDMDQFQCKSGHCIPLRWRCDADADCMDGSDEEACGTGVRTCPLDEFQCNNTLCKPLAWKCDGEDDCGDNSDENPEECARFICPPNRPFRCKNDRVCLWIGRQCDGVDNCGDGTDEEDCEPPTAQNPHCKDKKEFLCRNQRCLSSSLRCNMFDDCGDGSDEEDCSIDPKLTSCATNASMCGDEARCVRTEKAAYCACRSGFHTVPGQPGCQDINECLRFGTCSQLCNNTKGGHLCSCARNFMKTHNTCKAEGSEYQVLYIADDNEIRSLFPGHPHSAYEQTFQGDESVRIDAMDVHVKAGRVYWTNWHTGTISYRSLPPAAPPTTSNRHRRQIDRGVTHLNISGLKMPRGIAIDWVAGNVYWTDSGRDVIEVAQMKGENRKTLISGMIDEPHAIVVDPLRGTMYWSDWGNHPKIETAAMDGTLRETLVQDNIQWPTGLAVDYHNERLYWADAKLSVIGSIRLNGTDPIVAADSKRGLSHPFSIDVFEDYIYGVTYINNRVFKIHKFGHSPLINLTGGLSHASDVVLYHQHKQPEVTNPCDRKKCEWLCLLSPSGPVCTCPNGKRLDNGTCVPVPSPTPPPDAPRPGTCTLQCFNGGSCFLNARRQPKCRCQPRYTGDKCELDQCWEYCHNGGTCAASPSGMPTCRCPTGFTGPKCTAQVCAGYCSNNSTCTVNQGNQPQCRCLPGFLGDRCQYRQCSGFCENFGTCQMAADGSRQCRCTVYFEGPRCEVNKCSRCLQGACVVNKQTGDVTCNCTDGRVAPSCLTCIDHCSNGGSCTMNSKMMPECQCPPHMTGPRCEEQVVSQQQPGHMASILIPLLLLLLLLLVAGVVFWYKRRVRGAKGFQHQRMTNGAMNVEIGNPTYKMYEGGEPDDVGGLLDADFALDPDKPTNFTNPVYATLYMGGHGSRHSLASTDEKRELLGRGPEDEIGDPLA
UniProt P35441, residues 19-1170: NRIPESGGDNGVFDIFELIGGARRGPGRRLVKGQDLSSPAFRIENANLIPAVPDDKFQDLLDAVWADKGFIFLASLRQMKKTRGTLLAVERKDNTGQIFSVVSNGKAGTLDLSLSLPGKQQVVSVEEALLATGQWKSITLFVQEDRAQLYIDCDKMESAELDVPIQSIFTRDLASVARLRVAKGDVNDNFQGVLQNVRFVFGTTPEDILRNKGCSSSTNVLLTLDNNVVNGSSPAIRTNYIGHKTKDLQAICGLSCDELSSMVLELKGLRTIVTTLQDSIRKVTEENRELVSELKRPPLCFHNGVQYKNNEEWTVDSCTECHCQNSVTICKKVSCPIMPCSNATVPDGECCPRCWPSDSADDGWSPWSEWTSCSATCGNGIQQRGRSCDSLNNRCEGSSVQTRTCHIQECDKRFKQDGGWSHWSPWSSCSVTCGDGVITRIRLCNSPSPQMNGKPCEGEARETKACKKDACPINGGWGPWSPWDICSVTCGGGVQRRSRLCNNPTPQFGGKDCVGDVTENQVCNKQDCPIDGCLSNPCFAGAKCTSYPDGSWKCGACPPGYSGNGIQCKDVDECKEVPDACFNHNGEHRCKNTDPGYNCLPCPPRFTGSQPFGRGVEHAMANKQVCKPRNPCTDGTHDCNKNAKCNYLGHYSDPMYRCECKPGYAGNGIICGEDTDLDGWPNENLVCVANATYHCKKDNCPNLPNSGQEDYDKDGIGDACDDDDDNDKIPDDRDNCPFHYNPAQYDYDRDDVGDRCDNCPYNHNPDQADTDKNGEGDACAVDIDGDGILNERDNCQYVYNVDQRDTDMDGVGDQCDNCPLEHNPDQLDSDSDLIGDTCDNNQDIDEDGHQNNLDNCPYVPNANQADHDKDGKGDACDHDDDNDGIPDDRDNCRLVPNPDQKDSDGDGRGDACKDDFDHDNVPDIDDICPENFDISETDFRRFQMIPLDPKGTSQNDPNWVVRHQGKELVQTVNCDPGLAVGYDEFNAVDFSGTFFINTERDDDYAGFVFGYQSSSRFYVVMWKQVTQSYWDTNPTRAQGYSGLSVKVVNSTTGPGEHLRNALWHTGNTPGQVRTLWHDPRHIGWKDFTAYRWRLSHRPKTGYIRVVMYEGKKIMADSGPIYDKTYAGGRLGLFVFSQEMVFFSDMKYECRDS

T1: recombinant extracellular domain of mouse DCIR1 (mDCIR1-ECD), chemically biotinylated (mouse) (UniProt Q923C7)
T1 sequence (chain, biotin (chemical, EZ-Link Sulfo-NHS-LC-Biotin)): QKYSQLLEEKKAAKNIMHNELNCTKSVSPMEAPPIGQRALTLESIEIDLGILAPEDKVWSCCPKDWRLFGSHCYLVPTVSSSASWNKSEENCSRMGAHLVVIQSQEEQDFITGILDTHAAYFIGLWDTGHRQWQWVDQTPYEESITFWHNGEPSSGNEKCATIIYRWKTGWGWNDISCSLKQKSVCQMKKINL


What was measured:
[1] = target: T1, recombinant extracellular domain of mouse DCIR1 (mDCIR1-ECD), chemically biotinylated (mouse); assay: pull-down
[2] = target: mouse LRP1 on HoxB8-derived macrophages (mouse (endogenous in HoxB8-derived macrophages)) (UniProt Q91ZX7); assay: flow cytometry on cells

binding [1] | binding [2] | Molecule
binds weakly | – | Thrombospondin 1 (THBS1) (from UniProt P35441 19-1170)
– | binds | extracellular domain of human DCIR (hDCIR-ECD) with N-terminal Avi-tag, enzymatically biotinylated (domain or fragment, UniProt Q9UMR7-1 70-237, biotin (enzymatic, BirA ligase)) QKYSQLLEKKTTKELVHTTLECVKKNMPVEETAWSCCPKNWKSFSSNCYFISTESASWQDSEKDCARMEAHLLVINTQEEQDFIFQNLQEESAYFVGLSDPEGQRHWQWVDQTPYNESSTFWHPREPSDPNERCVVLNFRKSPKRWGWNDVNCLGPQRSVCEMMKIHL
– | binds | recombinant extracellular domain of mouse DCIR1 (mDCIR1-ECD) with N-terminal Avi-tag, enzymatically biotinylated (domain or fragment, UniProt Q9QZ15 70-238, biotin (enzymatic, BirA ligase)) QKYSQLLEEKKAAKNIMHNELNCTKSVSPMEDKVWSCCPKDWRLFGSHCYLVPTVSSSASWNKSEENCSRMGAHLVVIQSQEEQDFITGILDTHAAYFIGLWDTGHRQWQWVDQTPYEESITFWHNGEPSSGNEKCATIIYRWKTGWGWNDISCSLKQKSVCQMKKINL
